Results: publication PMC11374535

Target: SlGrx9-Flag (tomato (Solanum lycopersicum))
Test: co-IP; SlTrxh-GFP and SlGrx9-Flag co-expressed in N. benthamiana leaves for 48-72 h; Anti-Flag Affinity Gel; blots with anti-GFP and anti-Flag

B1: SlTrxh-GFP (protein, UniProt Q9LKW0 65-175)
chain: EDYLVKKLSAKEIQELIKGERNVPLIIDFYATWCGPCILMAQELEMLAVEYENNALIVKVDTDDEYEFARDMQVRGLPTLYFISPDSSKDAIRTEGLIPIQMMRDIIDNDL
binding: binds

No constants are given. Whether binding was seen depends on the method and setting. In cells and extracts the contact can be indirect. A result given as binding can be weak or reduced; the word gives no strength. Sequences can lack the tags named with a protein.
